Assay results: PMC12040169 (PLOS Biology, 2025)
This is one part of the list.

Test system: T1, CTL2-GFP (C. trachomatis L2/434/Bu, GFP-expressing)
T1 construct: L2/434/Bu, GFP-expressing
Parameters: species or system HeLa; Intracellular C. trachomatis growth in HeLa cells, bulk GFP fluorescence relative to DMSO
Conditions: bulk GFP, single well; 28.5 h, 10 µM; inhibitor

| SMILES | % of control remaining [%] |
| --- | --- |
| COc1ccc(C(NC(=O)C2CCN(CCOc3ccc4ccccc4c3)CC2)c2ccccc2C)cn1 (stereo not drawn) [CBK148792] | 24.5908 |
| CCCCN(C)c1c(C)nc2c(Oc3nc4ccccc4s3)cccn12 [CBK147192] | 75.5332 |
| Cn1nc(C2CCN(C(=O)c3ccccc3F)CC2)c2cccnc21 [CBK285019] | 70.648 |
| CCCn1ccnc1CNc1nc(C)nc2c1c(C)nn2C [CBK307459] | 90.7308 |
| CN(C)C(=O)CN1C(=O)[C@H]2CCCN2C(=O)c2ccccc21 [CBK282854] | 118.128 |
| CSc1ccc(-c2cnc3nc(N)ccc3c2)cc1 [CBK081169] | 122.636 |
| Oc1cc2cccnc2nc1-c1ccc(OCc2ccccc2)c(F)c1 [CBK073708] | 100 |
| Cc1ncsc1CCOc1ncccc1C(F)(F)F [CBK115781] | 115.551 |
| Cc1ccccc1-c1nnc2n1CCCCC2 [CBK200076A] | 111.139 |
| COc1cc(CNc2cncc(-c3ccc(N)cc3)n2)cc(OC)c1OC [CBK065483] | 100.839 |
| CCCNC(=O)Cn1cnc2sc(C)c(C)c2c1=O [CBK305863] | 142.47 |
| Nc1ncc(-c2ccoc2)nc1NCc1ccncc1 [CBK063656] | 158.559 |
| CCOc1cc(/C=C2\SC(=N)NC2=O)ccc1OCc1ccc(Br)cc1 [CBK263813] | 129.998 |
| COc1cccc(C(=O)Nc2nnc(-c3ccco3)o2)c1 [CBK287421] | 106.804 |
| Cc1sc(-c2c(F)cccc2F)nc1O [CBK067729] | 55.0398 |
| C[C@@H]1CN(Cc2ccccc2)C[C@H](C)N1 [CBK001569] | 124.832 |
| CCOc1ccccc1C(=O)N1CCC(Cc2ccccc2-c2ccccc2)(C(N)=O)CC1 [CBK285910] | 115.913 |
| Cc1nc2c(OCC(=O)C(C)(C)C)cccn2c1N(C)C(=O)C1CCCCC1 [CBK147145] | 113.967 |
| CSCCOc1nc2ccccc2nc1N1CCCC1 [CBK115770] | 131.4 |
| CC(=O)N1CCC(N2C[C@H](O)C[C@H]2c2nc(C3CC3)no2)CC1 [CBK288845] | 106.54 |
| COc1ccc(-c2cc(C(=O)Nc3cnc4ccccc4c3)cnc2-c2cccc(C)c2)cn1 [CBK037425] | 108.364 |

Three structures already listed, arranged by number of heavy atoms, ascending:

| SMILES | % of control remaining [%] |
| --- | --- |
| CSc1ccc(-c2cnc3nc(N)ccc3c2)cc1 [CBK081169] | 122.636 |
| CCCCN(C)c1c(C)nc2c(Oc3nc4ccccc4s3)cccn12 [CBK147192] | 75.5332 |
| COc1ccc(-c2cc(C(=O)Nc3cnc4ccccc4c3)cnc2-c2cccc(C)c2)cn1 [CBK037425] | 108.364 |

The list continues.

| SMILES | % of control remaining [%] |
| --- | --- |
| O=C1COc2ccccc2C/C=C/C[C@H]2CN(C(=O)CN3CCCCCC3=O)CC[C@H]2N1 [CBK292116] | 119.799 |
| CNCC1CCN(S(=O)(=O)c2ccc(OCc3ncnn3C)cc2)CC1 [CBK304309C] | 129.549 |
| O=C(CCNC(=O)c1ccc(Br)o1)NCc1ccccc1Cl [CBK294454] | 145.441 |
| Cc1cc(C)nc(SCc2csc(N)n2)n1 [CBK019838] | 97.1569 |
| COc1ccc(C(=O)c2sc3nc(C)cc(C)c3c2N)cc1 [CBK115362] | 106.204 |
| O=C(CN1CCC(c2ccc(F)cc2)CC1)N1CCCCC1 [CBK283640] | 86.0049 |
| NC(=O)CN1CCC(Oc2nccnc2OCc2cccnc2)CC1 [CBK083165] | 69.1898 |
| Cc1cc(-c2nc3ncccc3o2)ccc1NC(=S)NC(=O)c1cc2ccccc2o1 [CBK268922] | 119.719 |
| O=c1[nH]c2ncc(-c3ccncc3)nc2n1C1CCCC1 [CBK064972] | 147.564 |
| C[C@@H]1CN(C(=O)c2nccc3ccccc23)C[C@H](C)O1 [CBK200233] | 128.936 |
| O=C(NC(c1ccc2ccccc2n1)c1cccs1)C1CCNCC1 (stereo not drawn) [CBK148331] | 100 |
| O=C1Nc2cc(Cl)ccc2C(=O)N2CC[C@H](NC(=O)N3CCOCC3)[C@@H]12 [CBK289340] | 111.854 |
| O=C(CC1CCN(C(=O)CC2CCCCC2)CC1)NCc1ccccc1N1CCCC1 [CBK285962] | 121.206 |
| COc1cccc(NC(=S)NCCCN2CCOCC2)c1 [CBK264548] | 74.7755 |
| CN1CCN(CCOC(=O)N2CCCC(C(F)(F)F)C2)CC1 (stereo not drawn) [CBK200207] | 113.094 |
| Fc1ccc(-c2nccnc2OCc2ccccn2)cc1 [CBK106894] | 112.417 |
| C=CCNC(=O)N[C@H]1[C@H](O)[C@@H](N2CCN(c3ccccc3OC)CC2)[C@@H]2OC[C@H]1O2 [CBK288818] | 102.793 |
| CC(CCc1ccccc1)NC(=O)CC1COc2ccccc2O1 (stereo not drawn) [CBK266203] | 124.165 |
| Cc1c(F)cccc1CNCc1ccc(CNC(=O)OC(C)(C)C)cc1 [CBK056708] | 168.145 |
| CC(=O)C(C)n1c(CN2CCCC(C)C2)nc2c1c(=O)n(C)c(=O)n2C (stereo not drawn) [CBK306061] | 138.545 |
| CC(C)(C)C(=O)NCCn1c(=O)oc2ccccc21 [CBK282885] | 113.689 |

| SMILES | % of control remaining [%] |
| --- | --- |
| CN1Cc2ccccc2CC1C(=O)N1CCc2ncc(Cl)cc2C1 (stereo not drawn) [CBK282568] | 144.777 |
| CC(C)CCNC(=O)CC(=O)Nc1ccc(C(=O)O)cc1 [CBK286721] | 107.063 |
| Cc1cnc(CNC(=O)N2CCc3ccccc3C2)cn1 [CBK155166] | 161.774 |
| CC(=O)N1CCCC(c2cc3cccnc3n2CCN2CCCC2)C1 (stereo not drawn) [CBK284591] | 110.894 |
| Cn1c(Cc2ccccc2)nnc1Sc1ccc(C(=O)O)cc1[N+](=O)[O-] [CBK265038] | 120.679 |
| CC(C)[C@@H](N)C(=O)N1CC[C@@H]2NC(=O)[C@@H](Cc3ccccc3)NC(=O)C3(C/C=C/C[C@H]2C1)CCOCC3 [CBK292201] | 103.95 |
| O=C(NCCn1nc(-c2cccs2)ccc1=O)c1cccs1 [CBK283836] | 123.02 |
| COc1ccc(CCC(=O)Nc2ncn(Cc3cccc(C)c3)n2)cc1 [CBK288227] | 118.682 |
| CCCNCC(=O)N1CCN(C(=O)c2ccc(C)cc2)CC1 [CBK025546] | 112.548 |
| CN(C)CCNCCCSc1ccc(Cl)cc1 [CBK267794C] | 94.0305 |
| COc1ccc(Oc2coc3c(CN(C)C)c(O)ccc3c2=O)cc1 [CBK263653] | 137.696 |
| N#Cc1ccc(-c2cc(NCCc3ccncc3)ncn2)cc1 [CBK037787] | 230.169 |
| CCN1CCN(C(=O)CN(CC)S(=O)(=O)c2ccc3ccccc3c2)CC1 [CBK267913] | 111.347 |
| OCc1ncccc1OCCOC1CCCCO1 (stereo not drawn) [CBK045702] | 94.949 |
| CC(NC(=O)C1C2C=CC(C2)C1C(=O)O)c1ccccc1 (stereo not drawn) [CBK265384] | 110.083 |
| COc1cccc(NC(=O)N2CC[C@H]3CC(=O)N(c4ccccc4)CC[C@H]3C2)c1 [CBK288787] | 90.9498 |
| COC(=O)N/N=C(/C)c1ccc(C)cc1 [CBK016149] | 137.623 |
| COc1ccc(-n2ccn(C(=O)CCC3CCCC3)c2=O)cc1 [CBK106595] | 179.309 |
| O=C(O)c1cccc(-c2cc(N3CCN(Cc4cccnc4)CC3)n3nccc3n2)c1 [CBK037080] | 197.535 |
| O=C1c2ccccc2C(c2ccc(NC(=O)c3cccc4ccccc34)cc2)(c2ccc(NC(=O)c3cccc4ccccc34)cc2)c2ccccc21 [CBK261162] | 111.794 |
| Cc1c(OCc2ccc(C(=O)O)cc2)ccc2c(-c3ccccc3)cc(=O)oc12 [CBK296080] | 71.3891 |

| SMILES | % of control remaining [%] |
| --- | --- |
| NCC(=O)Nc1ccc(Cl)c(Cl)c1 [CBK046317] | 104.129 |
| CC(NC(=O)N(CCC#N)C1CCCCC1)c1ccccc1 (stereo not drawn) [CBK156382] | 105.014 |
| O=C(Nc1nccs1)c1nccnc1-c1ccc(COc2ccccc2)cc1 [CBK050839] | 219.2 |
| COCC(=O)Nc1ccc2c(c1)NC(=O)C(C)(C)CO2 [CBK287658] | 136.935 |
| C1C/C(=N/N=C2\CCCc3nonc32)c2nonc2C1 [CBK006721] | 119.161 |
| CC(C)(C)NS(=O)(=O)c1ccc(NC(=O)COc2ccc3ccccc3c2Br)cc1 [CBK267015] | 175.335 |
| NC(=O)C1CCN(Cc2nc(-c3cccc(C(F)(F)F)c3)no2)CC1 [CBK304276] | 97.3751 |
| CN1CCN(C(=O)C2CCCCC2C(=O)O)CC1 (stereo not drawn) [CBK287092] | 110.844 |
| COc1ccc(C(=O)Nc2cccc3nsnc23)cc1OC [CBK260973] | 96.5285 |
| COc1ccccc1CN[C@@H]1CCC[C@H]1Cc1cc(C)no1 [CBK283005] | 101.131 |
| COc1ccc(C2(O)CCN(CC(O)c3ccc4c(c3)CCC4)CC2)cc1 (stereo not drawn) [CBK286334] | 119.281 |
| O=C(N[C@H]1CO[C@H]2[C@@H]1OC[C@@H]2Nc1nccc(-c2cccs2)n1)c1cccs1 [CBK289518] | 61.3696 |
| NCCNc1cccc2c1ccn2S(=O)(=O)c1ccccc1 [CBK028470C] | 83.4162 |
| C(=C\CSc1nc2ccccc2[nH]1)/CSc1nc2ccccc2[nH]1 [CBK263090] | 95.3783 |
| CSCCCNC(=O)c1ccc(-c2ccoc2)nc1 [CBK156262] | 105.748 |
| O=C(O)CC(NCc1ccccc1)C(=O)Nc1ccccc1Br (stereo not drawn) [CBK267118] | 123.824 |
| CCOC(=O)C1CCCN(Cc2c[nH]nc2-c2ccc(OC)cc2F)C1 (stereo not drawn) [CBK307304] | 129.384 |
| O=C(NC1CCCc2c1cnn2-c1ccc(F)cc1)C1CC1 (stereo not drawn) [CBK283928] | 108.681 |
